Assay results: patent US20100034867A1, “DRUG DELIVERY COATING FOR USE WITH A MEDICAL DEVICE AND METHODS OF TREATING VASCULAR INJURY” (ATRIUM MEDICAL CORPORATION, priority 2005, published 2010)
At least one compound was matched to its structure with a doubt left.

Legend:
[1] = system: rabbit illiac arteries; experiment: Methylprednisolone/Cilostazol/Paclitaxel/Taxus study: stents implanted in rabbit iliac arteries for 28 days, histomorphic and histopathologic analyses; conditions: Atrium stents, high dose
[2] = system: rabbit illiac arteries; assay type: in vivo; conditions: 28 days
Experimental: The Atrium Flyer is compared with bare metal stents, the Atrium Flyer coated with ALPHA-3 without drugs, and Cypher™ drug eluting stent. Histomorphic and histopathologic analyses are then performed.

In the case of `CO[C@H]1C[C@@H]2CC[C@@H](C)[C@@](O)(O2)C(=O)C(=O)N2CCCC[C@H]2C(=O)O[C@H]([C@H](C)C[C@@H]2CC[C@@H](O)[C@H](OC)C2)CC(=O)[C@H](C)/C=C(\C)[C@@H](O)[C@@H](OC)C(=O)[C@H](C)C[C@H](C)/C=C/C=C/C=C/1C` [Sirolimus], the “in-stent neointimal growth (in words)” value [1] is reported as “suppresses in-stent neointimal growth at 28 days similarly to the Taxus™ Express stent” and the “neointimal growth (in words)” value [2] is reported as “significantly reduce neoinimal growth at 28 days”.
